Reference: publication PMC8274477
Results are given in words; binding and its absence hold for the method and conditions named. Some results given as binding are weak or reduced against the parent protein; the word gives no strength.

The chains behind the UniProt entries cited, without tags or fusion partners.
UniProt Q8N8S7: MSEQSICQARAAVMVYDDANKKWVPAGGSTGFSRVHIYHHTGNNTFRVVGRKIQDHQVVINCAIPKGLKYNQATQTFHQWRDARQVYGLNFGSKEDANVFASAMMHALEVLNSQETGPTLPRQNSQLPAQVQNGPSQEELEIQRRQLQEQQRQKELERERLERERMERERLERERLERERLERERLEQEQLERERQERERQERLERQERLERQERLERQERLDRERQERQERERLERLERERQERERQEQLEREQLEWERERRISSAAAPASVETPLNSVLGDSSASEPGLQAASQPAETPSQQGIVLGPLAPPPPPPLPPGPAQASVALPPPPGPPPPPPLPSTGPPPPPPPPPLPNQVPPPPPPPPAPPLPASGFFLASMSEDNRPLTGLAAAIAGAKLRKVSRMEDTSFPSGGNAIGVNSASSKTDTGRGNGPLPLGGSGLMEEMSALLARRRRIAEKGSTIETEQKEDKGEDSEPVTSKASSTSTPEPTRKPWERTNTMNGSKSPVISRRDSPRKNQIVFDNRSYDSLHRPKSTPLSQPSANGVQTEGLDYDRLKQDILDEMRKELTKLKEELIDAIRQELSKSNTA

Experiments:
Experiment in all cases: peptide or protein array; HuProt human proteome microarray; 5 ug/5 ml biotin-labelled LUBAC or OTULIN in solution, 1 h at room temperature; Cy5-streptavidin, scanned at 635 nm; BSA as negative control; hits: Z-score >= 3 and I_(Mean_Ratio) >= 1.4; both purified
ADAMTSL4 (human) = molecular target: T1, ADAMTSL4 (human) (UniProt Q6UY14)
T1 sequence: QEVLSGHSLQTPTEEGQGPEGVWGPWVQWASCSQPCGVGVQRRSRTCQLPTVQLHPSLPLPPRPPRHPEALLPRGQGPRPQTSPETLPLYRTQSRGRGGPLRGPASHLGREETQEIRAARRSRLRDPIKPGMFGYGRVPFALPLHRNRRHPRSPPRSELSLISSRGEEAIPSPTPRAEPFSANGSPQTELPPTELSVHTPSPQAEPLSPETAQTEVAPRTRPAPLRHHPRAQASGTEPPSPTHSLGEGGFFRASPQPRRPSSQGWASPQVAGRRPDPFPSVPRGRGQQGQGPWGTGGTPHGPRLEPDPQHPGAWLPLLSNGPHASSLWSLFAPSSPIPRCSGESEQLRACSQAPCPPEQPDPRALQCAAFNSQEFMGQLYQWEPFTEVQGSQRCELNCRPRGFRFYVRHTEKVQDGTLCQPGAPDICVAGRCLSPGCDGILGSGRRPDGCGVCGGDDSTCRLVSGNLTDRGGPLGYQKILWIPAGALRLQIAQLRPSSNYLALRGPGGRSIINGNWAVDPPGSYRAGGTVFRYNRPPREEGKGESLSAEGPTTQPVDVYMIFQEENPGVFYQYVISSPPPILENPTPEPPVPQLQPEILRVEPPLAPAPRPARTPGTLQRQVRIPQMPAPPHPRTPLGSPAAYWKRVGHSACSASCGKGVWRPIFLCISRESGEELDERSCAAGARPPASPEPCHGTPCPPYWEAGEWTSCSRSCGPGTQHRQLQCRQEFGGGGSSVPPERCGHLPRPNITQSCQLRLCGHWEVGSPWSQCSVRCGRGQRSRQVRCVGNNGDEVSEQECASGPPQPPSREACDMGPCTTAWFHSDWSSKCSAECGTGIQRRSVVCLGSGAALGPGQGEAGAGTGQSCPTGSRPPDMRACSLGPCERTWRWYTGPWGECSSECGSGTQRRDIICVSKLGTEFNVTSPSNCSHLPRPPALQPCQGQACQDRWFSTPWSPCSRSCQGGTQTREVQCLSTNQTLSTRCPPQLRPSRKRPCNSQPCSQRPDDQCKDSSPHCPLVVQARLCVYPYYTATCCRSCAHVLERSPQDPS

BLVRB (human) = molecular target: T2, BLVRB (human) (UniProt P30043)
T2 sequence: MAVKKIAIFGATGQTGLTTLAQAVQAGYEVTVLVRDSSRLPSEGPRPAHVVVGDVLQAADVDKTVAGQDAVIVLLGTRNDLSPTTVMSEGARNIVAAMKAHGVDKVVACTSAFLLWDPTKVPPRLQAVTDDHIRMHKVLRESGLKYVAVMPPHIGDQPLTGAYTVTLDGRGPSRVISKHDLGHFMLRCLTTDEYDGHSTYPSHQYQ

ENAH (human) = ENAH (human) (UniProt Q8N8S7)
NUMBL (human) = molecular target: T3, NUMBL (human) (UniProt Q9Y6R0)
T3 sequence: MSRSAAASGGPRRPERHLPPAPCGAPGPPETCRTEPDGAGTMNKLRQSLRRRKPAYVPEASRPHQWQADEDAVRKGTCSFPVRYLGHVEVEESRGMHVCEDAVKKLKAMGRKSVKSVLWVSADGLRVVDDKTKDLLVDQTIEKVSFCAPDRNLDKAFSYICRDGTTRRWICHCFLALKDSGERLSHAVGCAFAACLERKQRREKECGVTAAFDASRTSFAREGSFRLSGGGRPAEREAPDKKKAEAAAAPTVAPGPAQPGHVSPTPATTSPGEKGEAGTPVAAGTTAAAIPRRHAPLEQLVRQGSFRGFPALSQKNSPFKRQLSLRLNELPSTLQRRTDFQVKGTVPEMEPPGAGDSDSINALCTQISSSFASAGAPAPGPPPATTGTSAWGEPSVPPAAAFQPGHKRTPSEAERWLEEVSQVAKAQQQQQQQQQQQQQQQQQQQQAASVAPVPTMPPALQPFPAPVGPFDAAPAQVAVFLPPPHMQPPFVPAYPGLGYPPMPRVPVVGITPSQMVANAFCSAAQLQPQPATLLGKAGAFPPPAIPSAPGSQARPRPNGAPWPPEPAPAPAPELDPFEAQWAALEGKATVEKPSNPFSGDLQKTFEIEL

TRMT12 (human) = molecular target: T4, TRMT12 (human) (UniProt Q53H54)
T4 sequence: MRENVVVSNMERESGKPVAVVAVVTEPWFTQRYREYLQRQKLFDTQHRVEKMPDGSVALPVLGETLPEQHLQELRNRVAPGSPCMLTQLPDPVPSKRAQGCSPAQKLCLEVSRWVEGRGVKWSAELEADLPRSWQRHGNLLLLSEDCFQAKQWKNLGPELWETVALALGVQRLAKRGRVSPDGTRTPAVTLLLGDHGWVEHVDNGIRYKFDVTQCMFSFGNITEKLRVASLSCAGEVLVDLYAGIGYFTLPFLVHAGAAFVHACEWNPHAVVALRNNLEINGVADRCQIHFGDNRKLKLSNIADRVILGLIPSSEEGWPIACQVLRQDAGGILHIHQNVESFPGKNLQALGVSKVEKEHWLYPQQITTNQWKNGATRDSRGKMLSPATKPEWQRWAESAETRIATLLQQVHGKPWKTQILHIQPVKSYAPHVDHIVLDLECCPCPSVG

- binding (ADAMTSL4 (human)): binds
- binding (BLVRB (human)): binds
- binding (ENAH (human)): binds
- binding (NUMBL (human)): binds
- binding (TRMT12 (human)): binds
Substance: linear ubiquitin chain assembly complex (LUBAC), purified as HIS-tagged HOIP with the subunit HOIL-1, biotin-labelled (from UniProt Q96EP0 1-1072; Q9BYM8 1-510)
